Assay results as given in PubChem BioAssay AID248 (DTP/NCI, 2004).
The list is a part of this screen's results and no random one: it is rich in T/C values a quarter to a half above the control, in often repeated tests (any T/C) and in doses without a T/C. Further doses and runs are listed elsewhere. T/C: endpoint of the treated group in % of that of the vehicle group. Some entries give survivors of the animals treated and no T/C: the source files T/C as zero there, which appears to mark a toxic dose or a test without result, not a measured value. Some doses without a T/C left all or most animals alive at the check, yet need not have been tolerated: survival well below the control is almost never listed, so the zero probably covers shortened survival too. Counts of survivors are from the toxicity check (mostly the fifth day) where no day follows; animals may have died later. Schedule codes are those of the source, read here as Q, the interval in days (D) or hours (H), X, the number of doses. Some doses were run more than once; the values are given in rising order. Some schedules carry Z or #; the key to these is not given. Where survival is the endpoint, the PubChem record calls one and a half times the control and up active, and a quarter to a half above the control has no call in these data; cut-offs in other NCI protocols can differ. Some T/C values are followed by the survivors on the day toxicity was checked, most often the fifth; where none is given, no animal had died by that day.

Test system: L1210 leukemia ip in BDF1 mice, survival T/C
Assay: NCI In Vivo Anticancer Drug Screen. Data for tumor model L1210 Leukemia (intraperitoneal) in B6D2F1 (BDF1) mice
Settings: T/C endpoint: mean survival time, higher T/C = longer survival
[1] = dose: 200.0 mg/kg/injection, schedule: Q04DX003 (ip), vehicle: Klucel (hydroxypropylcellulose) (HPC)
[2] = dose: 400.0 mg/kg/injection, schedule: Q04DX003 (ip), vehicle: Klucel (hydroxypropylcellulose) (HPC)
[3] = dose: 100.0 mg/kg/injection, schedule: Q04DX003 (ip), vehicle: saline
[4] = dose: 200.0 mg/kg/injection, schedule: Q04DX003 (ip), vehicle: saline
[5] = dose: 400.0 mg/kg/injection, schedule: Q04DX003 (ip), vehicle: saline
[6] = dose: 100.0 mg/kg/injection, schedule: Q01DX009 (ip), vehicle: Klucel (hydroxypropylcellulose) (HPC)
[7] = dose: 200.0 mg/kg/injection, schedule: Q01DX009 (ip), vehicle: Klucel (hydroxypropylcellulose) (HPC)
[8] = dose: 400.0 mg/kg/injection, schedule: Q01DX009 (ip), vehicle: Klucel (hydroxypropylcellulose) (HPC)
[9] = dose: 400.0 mg/kg/injection, schedule: Q04DX003 (ip), vehicle: saline with Tween-80
[10] = dose: 400.0 mg/kg/injection, schedule: Q01DX001 (ip), vehicle: saline
[11] = dose: 200.0 mg/kg/injection, schedule: Q01DX001 (ip), vehicle: saline
[12] = dose: 25.0 mg/kg/injection, schedule: Q04DX003 (ip), vehicle: saline
[13] = dose: 200.0 mg/kg/injection, schedule: Q04DX003 (ip), vehicle: saline with Tween-80
[14] = dose: 200.0 mg/kg/injection, schedule: Q01DX009 (ip), vehicle: saline

Q: Which survivor count (dose: 12.5 mg/kg/injection, schedule: Q04DX003 (ip), vehicle: Klucel (hydroxypropylcellulose) (HPC)) does the source give for C[n+]1ccc(/C=C/c2c(Cl)cccc2Cl)c2ccccc21 here?
A: 3 of 6

Q: What about the survivor count (dose: 25.0 mg/kg/injection, schedule: Q04DX003 (ip), vehicle: Klucel (hydroxypropylcellulose) (HPC)) of the same molecule?
A: 1 of 6

Q: What about the survivor count (dose: 50.0 mg/kg/injection, schedule: Q04DX003 (ip), vehicle: Klucel (hydroxypropylcellulose) (HPC)) of the same molecule?
A: 0 of 6

Q: What about the survivor count (dose: 100.0 mg/kg/injection, schedule: Q04DX003 (ip), vehicle: Klucel (hydroxypropylcellulose) (HPC)) of the same molecule?
A: 0 of 6

Q: What about the survivor count [1] of the same molecule?
A: 0 of 6

Q: And the survivor count [2]?
A: 0 of 6

Q: CC1CNC(c2ccc(NC(=O)c3ccc(C(=O)Nc4ccc(C5=NC(C)CN5)cc4)c(NC(=O)Nc4cccc(C5=NC(C)CN5)c4)c3)cc2)=N1 (stereo not given) was tested. Which T/C (dose: 3.75 mg/kg/injection, schedule: Q01DX Z (ip), vehicle: saline) did it give?
A: 147 % of control

Q: What about the survivor count (dose: 15.0 mg/kg/injection, schedule: Q01DX Z (ip), vehicle: saline) of the same molecule?
A: 0 of 6

Q: What about the survivor count (dose: 30.0 mg/kg/injection, schedule: Q01DX Z (ip), vehicle: saline) of the same molecule?
A: 0 of 6

Q: And the survivor count (dose: 60.0 mg/kg/injection, schedule: Q01DX Z (ip), vehicle: saline)?
A: 0 of 6

Q: And the survivor count (dose: 120.0 mg/kg/injection, schedule: Q01DX Z (ip), vehicle: saline)?
A: 0 of 6

Q: And the survivor count (dose: 500.0 mg/kg/injection, schedule: Q01DX010 (oral), vehicle: saline)?
A: 3 of 6

Q: Which survivor count [2] does the source give for C1=C(c2ccccc2)CCC1 here?
A: 1 of 6

Q: How did the survivor count [3] turn out when Nc1cc(N)cc([N+](=O)[O-])c1 was run?
A: 1 of 6

Q: And the survivor count [4]?
A: 0 of 6

Q: And the survivor count [5]?
A: 0 of 6

Q: How did the survivor count [1] turn out when N#CCCNC(Cc1ccc(O)cc1)C(=O)O (stereo not given) was run?
A: 1 of 6

Q: And the survivor count [2]?
A: 1 of 6

Q: How did the survivor count [4] turn out when CCCCCCCCS.[Ni] was run?
A: 1 of 6

Q: And the survivor count [5]?
A: 0 of 6

Q: How did the survivor count [6] turn out when COC(=O)/C(Cl)=C(\Cl)C(=O)OC was run?
A: 1 of 6

Q: What about the survivor count [7] of the same molecule?
A: 0 of 6

Q: And the survivor count (dose: 200.0 mg/kg/injection, schedule: Q01DX009 (ip), vehicle: saline with Tween-80)?
A: 3 of 6

Q: What about the survivor count [1] of the same molecule?
A: 2 of 6

Q: What about the survivor count [8] of the same molecule?
A: 0 of 6

Q: What about the survivor count (dose: 400.0 mg/kg/injection, schedule: Q01DX009 (ip), vehicle: saline with Tween-80) of the same molecule?
A: 0 of 6

Q: And the survivor count [2]?
A: 3 of 6

Q: What about the survivor count [9] of the same molecule?
A: 3 of 6

Q: Which survivor count (dose: 480.0 mg/kg/injection, schedule: Q01DX Z (ip), vehicle: carboxymethylcellulose (CMC)) does the source give for CCCCCCCCCCCCCCCCNC(=S)N/N=C/C(C)=N/NC(=S)NCCCCCCCCCCCCCCCC here?
A: 4 of 6

Q: Which survivor count [10] does the source give for C[N+](C)(C)c1ncnc2c1ncn2C1CC(O)C(CO)O1 (stereo not given) here?
A: 1 of 4

Q: How did the survivor count (dose: 12.5 mg/kg/injection, schedule: Q01DX009 (ip), vehicle: acetone) turn out when c1cc[n+](CCSCCSCC[n+]2ccccc2)cc1 was run?
A: 0 of 6

Q: And the survivor count (dose: 18.0 mg/kg/injection, schedule: Q04DX003 (ip), vehicle: saline)?
A: 5 of 6

Q: And the survivor count (dose: 25.0 mg/kg/injection, schedule: Q01DX001 (ip), vehicle: saline)?
A: 0 of 6

Q: What about the survivor count (dose: 28.0 mg/kg/injection, schedule: Q04DX003 (ip), vehicle: saline) of the same molecule?
A: 1 of 6

Q: What about the survivor count (dose: 40.0 mg/kg/injection, schedule: Q04DX003 (ip), vehicle: saline) of the same molecule?
A: 0 of 6

Q: What about the survivor count (dose: 50.0 mg/kg/injection, schedule: Q01DX001 (ip), vehicle: saline) of the same molecule?
A: 0 of 6

Q: What about the survivor count (dose: 100.0 mg/kg/injection, schedule: Q01DX001 (ip), vehicle: saline) of the same molecule?
A: 0 of 6

Q: What about the survivor count [11] of the same molecule?
A: 1 of 6

Q: And the survivor count [10]?
A: 1 of 6

Q: What does the source list for N=C(N)c1ccc(Oc2ccc(-c3cc4ccc(C(=N)N)cc4[nH]3)cc2)cc1?
A: T/C (dose: 6.25 mg/kg/injection, schedule: Q01DX009 (ip), vehicle: saline with Tween-80): 125 % of control; T/C [12]: 137 % of control; survivor count [12]: 1 of 4; survivor count (dose: 50.0 mg/kg/injection, schedule: Q04DX003 (ip), vehicle: saline): 2 of 6; survivor count (dose: 100.0 mg/kg/injection, schedule: Q04DX003 (ip), vehicle: saline with Tween-80): 0 of 4; survivor count [13]: 0 of 4; survivor count [9]: 1 of 4

Q: What does the source list for CCOC(=O)c1ccc(N=NN(C)C(C)CC)cc1 (stereo not given)?
A: T/C [6]: 125 % of control; T/C [7]: 133 % of control

Q: Which results are given for CCC(C)C1NC(=O)C(NC(=O)c2c3nc4c(C(=O)NC5C(=O)NC(C(C)CC)C(=O)N6CCCC6C(=O)N(C)CC(=O)N(C)C(C(C)C)C(=O)OC5C)cc(N)c(C)c4oc-3c(C)c(=O)c2N)C(C)OC(=O)C(C(C)C)N(C)C(=O)CN(C)C(=O)C2CCCN2C1=O (stereo not given)?
A: T/C (dose: 200.0 micrograms/kg/injection, schedule: Q01DX009 (ip), vehicle: saline + alcohol): 130 % of control; T/C (dose: 400.0 micrograms/kg/injection, schedule: Q04DX003 (ip), vehicle: saline + alcohol): 126 % of control; T/C (dose: 600.0 micrograms/kg/injection, schedule: Q04DX003 (ip), vehicle: saline + alcohol): 130 % of control; T/C (dose: 800.0 micrograms/kg/injection, schedule: Q04DX003 (ip), vehicle: saline + alcohol): 138 % of control; T/C (dose: 1200.0 micrograms/kg/injection, schedule: Q04DX003 (ip), vehicle: saline + alcohol): 133 % of control; T/C (dose: 1600.0 micrograms/kg/injection, schedule: Q04DX003 (ip), vehicle: saline + alcohol): 135 % of control

Q: What does the source list for CCCNc1ncc(C(=O)O)c(=O)[nH]1?
A: survivor count [13]: 3 of 6; survivor count [9]: 3 of 6

Q: For CSc1nc(=O)[nH]nc1SCc1ccccc1, which T/C (dose: 200.0 mg/kg/injection, schedule: Q01DX001 (ip), vehicle: carboxymethylcellulose (CMC)) is on record?
A: 148 % of control

Q: CCCC(CCC)=NCCCO was tested. Which survivor count (dose: 300.0 mg/kg/injection, schedule: Q01DX001 (ip), vehicle: carboxymethylcellulose (CMC)) did it give?
A: 0 of 6

Q: With C/C=C/CC1(CC)C(=O)NC(=S)NC1=O as the molecule, how does the survivor count (dose: 300.0 mg/kg/injection, schedule: Q01DX001 (ip), vehicle: saline) read?
A: 1 of 6

Q: Which survivor count [5] does the source give for CC1CCCC(C[N+](C)(C)C)C1=O (stereo not given) here?
A: 3 of 6

Q: For O=C(NCCCl)NC1CCSc2ccccc21 (stereo not given), which survivor count [9] is on record?
A: 5 of 6

Q: How did the survivor count [1] turn out when CCCCCC(Br)C(Br)CC(Br)C(Br)CCCCCCCC(=O)O (stereo not given) was run?
A: 6 of 6

Q: How did the survivor count [11] turn out when N/C(=N\O)c1cccc(/C(N)=N/O)c1 was run?
A: 2 of 6

Q: And the survivor count [10]?
A: 0 of 6

Q: Which results are given for COC1OCC(O)C(NC(=O)N(C)N=O)C1O (stereo not given)?
A: T/C (dose: 12.5 mg/kg/injection, schedule: Q01DX009 (ip), vehicle: saline): 135 % of control; T/C (dose: 44.0 mg/kg/injection, schedule: Q04DX003 (ip), vehicle: saline): 126 % of control; T/C (dose: 50.0 mg/kg/injection, schedule: Q01DX009 (ip), vehicle: saline): 144 % of control; T/C (dose: 66.0 mg/kg/injection, schedule: Q04DX003 (ip), vehicle: saline): 126 [5 of 6 alive], 135, 138 % of control; T/C [3]: 136 and 145 % of control; T/C (dose: 150.0 mg/kg/injection, schedule: Q01DX009 (ip), vehicle: citric acid): 144 % of control; T/C [14]: 134 % of control; survivor count (dose: 300.0 mg/kg/injection, schedule: Q01DX009 (ip), vehicle: citric acid): 7 of 10; survivor count (dose: 400.0 mg/kg/injection, schedule: Q01DX009 (ip), vehicle: saline): 5 of 6

Q: How did the survivor count (dose: 100.0 mg/kg/injection, schedule: Q01DX001 (ip), vehicle: Klucel (hydroxypropylcellulose) (HPC)) turn out when CCCCN(CCCC)CC(O)c1cc(Cl)cc2cccnc12 (stereo not given) was run?
A: 3 of 6

Q: What about the survivor count (dose: 200.0 mg/kg/injection, schedule: Q01DX001 (ip), vehicle: Klucel (hydroxypropylcellulose) (HPC)) of the same molecule?
A: 1 of 6

Q: What about the survivor count (dose: 400.0 mg/kg/injection, schedule: Q01DX001 (ip), vehicle: Klucel (hydroxypropylcellulose) (HPC)) of the same molecule?
A: 1 of 6

Q: With Cc1ccc2c(c1)CCCN2C as the molecule, how does the survivor count [14] read?
A: 2 of 6

Q: What about the survivor count [5] of the same molecule?
A: 0 of 6

Q: What does the source list for O=C(Nc1cccc(F)c1)Sc1ccc(Cl)cc1?
A: survivor count [7]: 3 of 6 and 5 of 6; survivor count [8]: 1 of 6
